# Source: PubChem BioAssay AID1487 (National Center for Advancing Translational Sciences (NCATS), 2009)
# This is one part of the list. These are further read-outs of the screen, such as a control signal, another cell line or another target. No call is given for them. Most of these compounds were active or inconclusive in the main read-out, so they are no random draw. Potencies come from curve fits of mixed quality, noted in brackets.
# Experiment: qHTS Assay for Modulators of Lamin A Splicing
# Settings: HeLa LMNA splicing GFP/RFP minigene ratio, 48 h
# In short: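 S3 HeLa cells stably expressing lamin A-EGFP splicing minigene plus DsRed2, 600 cells/well, 48 h compound exposure at 37C. Laser-scanning cytometry; analysed as GFP (500-530 nm)/RFP (575-640 nm) total intensity ratio; 0.5% DMSO vehicle.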
# [1] = measured here: GFP splicing reporter channel
# [2] = measured here: RFP viability control channel
SMILES,AC50 [1],AC50 [2]
N#C/C(C(N)=O)=c1/ccc2c(c1)N1C3=C(CCCC3)CC3CCCCC31N=2 (stereo not given),"35.5 µM [falling, single point]","35.5 µM [falling, single point]"
COc1ccc(/C=N/NC(=O)c2ccncc2)cc1CN1CCN(c2ccc(F)cc2)CC1,"3.16 µM [rising, single point]",
C[C@]1(C(=O)NCc2cc(F)cc(C(F)(F)F)c2)C=C[C@@H](Cc2ccccc2)N1C(=O)c1ccccc1,"10 µM [rising, partial curve]","11.2 µM [rising, partial curve]"
Clc1ccc(-c2noc(CN3CCN(c4ccccc4)CC3)n2)cc1,,"35.5 µM [rising, single point]"
N#CC(C#N)=C1C=CC=CN1/C(=C\c1ccccc1Cl)C(=O)c1ccccc1,"7.94 µM [rising, partial curve, poor fit]",
COc1cc(/C=N/N(C)c2ccccc2)ccc1O,"28.2 µM [falling, single point]","35.5 µM [falling, single point]"
COc1cc(CN2CCN(c3cccc(C)c3C)CC2)cc([N+](=O)[O-])c1O,,"7.08 µM [rising, full curve, poor fit]"
COc1ccccc1NCC(O)COc1ccc(C(C)(C)C)cc1 (stereo not given),"35.5 µM [falling, single point]","28.2 µM [falling, partial curve]"
CCOC(=O)C1CCCN(CC(=O)/C=C2/N(C)c3ccccc3C2(C)C)C1 (stereo not given),,"22.4 µM [rising, single point]"
Cc1cc(NCCN2CCOCC2)c2ccc3ccccc3c2n1,"11.2 µM [falling, partial curve]",
O=C(NCCc1c[nH]c2ccccc12)C(=O)NCC(c1cccnc1)N1CCN(c2ccccc2)CC1 (stereo not given),,"3.55 µM [rising, full curve]"
Cc1nn(C)c(C(=O)NNC(=S)NCC(C)C)c1Cl,"11.2 µM [rising, single point]","12.6 µM [rising, single point]"
Cc1ccc(C(=O)N2CCN=C2SCc2ccc([N+](=O)[O-])cc2)cc1C,"35.5 µM [rising, partial curve, poor fit]","35.5 µM [rising, single point]"
N#Cc1c(NC(=O)CSc2ncnc3c2cnn3-c2ccccc2Cl)sc2c1CCCC2,,"10 µM [rising, partial curve, poor fit]"
CC(C)C(=O)Nc1cccc(S(=O)(=O)c2cccc(NC(=O)C(C)C)c2)c1,,"12.6 µM [rising, partial curve]"
CCc1ccc(-c2[nH]c3c(c2-c2sc(C)c(C(=O)OC)c2O)c(=O)[nH]c(=O)n3C)cc1,"35.5 µM [falling, single point]","3.55 µM [falling, partial curve]"
CCCCN(CCCC)S(=O)(=O)c1ccc2oc(C(=O)NCc3ccc(C)cc3)c(C)c2c1,,"22.4 µM [rising, single point]"
N=c1c(C(=O)NCc2ccco2)cc2c(=O)n3ccccc3nc2n1Cc1ccc(Cl)cc1,,"35.5 µM [falling, single point]"
CCCCn1ccc(=O)c2c(C(F)(F)F)nccc21,"8.91 µM [rising, partial curve, poor fit]","17.8 µM [rising, single point]"
CCCOCCOC(=O)c1[nH]c2c(c1C)C(=O)CC(c1cc(OC)ccc1OC)C2 (stereo not given),,"4.47 µM [rising, full curve]"
O=C(Nc1nnc(-c2ccccc2)o1)c1ccc(Cl)cc1,,"5.62 µM [rising, single point]"
COc1cc(OC)cc(C(=O)N[C@H](C(=O)Nc2nc(-c3cc(OC)ccc3OC)cs2)C(C)C)c1,"22.4 µM [falling, partial curve, poor fit]","10 µM [falling, partial curve]"
COC(=O)C1=C(C)N=C2SCCC(=O)N2C1c1cc(Br)ccc1OC (stereo not given),,"12.6 µM [rising, partial curve]"
CCCn1ccc2c(OCC(=O)Nc3ccccc3OCC)cccc2c1=O,"0.562 µM [falling, full curve]",
CC1CCc2cc(F)cc3c(O)c(C(=O)NCC4CCCO4)c(=O)n1c23 (stereo not given),,"6.31 µM [rising, single point]"
CCc1ccc(/C=N/NC(=O)c2cc(-c3ccncc3)nc3ccccc23)s1,"1.78 µM [rising, full curve]","1.78 µM [rising, full curve]"
CN(C)C(=O)c1ccc(-c2ccc3ncnc(Nc4ccccc4)c3c2)cc1,"12.6 µM [falling, partial curve]","12.6 µM [falling, partial curve]"

# A draw from above in order of molar mass, high to low.
SMILES,AC50 [1],AC50 [2]
COc1ccc(/C=N/NC(=O)c2ccncc2)cc1CN1CCN(c2ccc(F)cc2)CC1,"3.16 µM [rising, single point]",
COC(=O)C1=C(C)N=C2SCCC(=O)N2C1c1cc(Br)ccc1OC (stereo not given),,"12.6 µM [rising, partial curve]"
CCCOCCOC(=O)c1[nH]c2c(c1C)C(=O)CC(c1cc(OC)ccc1OC)C2 (stereo not given),,"4.47 µM [rising, full curve]"
CC(C)C(=O)Nc1cccc(S(=O)(=O)c2cccc(NC(=O)C(C)C)c2)c1,,"12.6 µM [rising, partial curve]"
CCc1ccc(/C=N/NC(=O)c2cc(-c3ccncc3)nc3ccccc23)s1,"1.78 µM [rising, full curve]","1.78 µM [rising, full curve]"
N#CC(C#N)=C1C=CC=CN1/C(=C\c1ccccc1Cl)C(=O)c1ccccc1,"7.94 µM [rising, partial curve, poor fit]",
COc1cc(CN2CCN(c3cccc(C)c3C)CC2)cc([N+](=O)[O-])c1O,,"7.08 µM [rising, full curve, poor fit]"
CCOC(=O)C1CCCN(CC(=O)/C=C2/N(C)c3ccccc3C2(C)C)C1 (stereo not given),,"22.4 µM [rising, single point]"
Cc1ccc(C(=O)N2CCN=C2SCc2ccc([N+](=O)[O-])cc2)cc1C,"35.5 µM [rising, partial curve, poor fit]","35.5 µM [rising, single point]"
CC1CCc2cc(F)cc3c(O)c(C(=O)NCC4CCCO4)c(=O)n1c23 (stereo not given),,"6.31 µM [rising, single point]"
COc1cc(/C=N/N(C)c2ccccc2)ccc1O,"28.2 µM [falling, single point]","35.5 µM [falling, single point]"

# Next compounds:

SMILES,AC50 [1],AC50 [2]
O=C(CCl)N(Cc1cccc([N+](=O)[O-])c1)c1cccc(Cl)c1,"1.78 µM [falling, partial curve, poor fit]","2.82 µM [falling, partial curve]"
COc1ccc2c(CC(=O)Nc3cccc(S(=O)(=O)N4CCOCC4)c3)coc2c1,,"12.6 µM [rising, single point]"
O=C(Oc1ccc(/C=N/Nc2nc(N3CCCCC3)nc(N3CCCCC3)n2)cc1)c1ccco1,"0.158 µM [falling, full curve]","1 µM [falling, full curve]"
Cc1ccc(C)c(NS(=O)(=O)c2ccc3c(c2)n(C)c(=O)n3C)c1,"14.1 µM [rising, single point]",
COc1ccc(C2N(Cc3ccccc3)CCN2Cc2ccccc2)cc1[N+](=O)[O-],"5.01 µM [falling, full curve, poor fit]","5.01 µM [falling, full curve, poor fit]"
COc1cccc(-c2cc(C(=O)N3CCN(C(c4ccccc4)c4ccccc4)CC3)no2)c1,,"7.94 µM [rising, partial curve]"
CCn1c(SCC(=O)N2CCC(C)CC2)nnc1-c1ccccc1O,"0.316 µM [rising, partial curve, poor fit]",
O=S(=O)(Nc1cccc(-c2ccc(N3CCCCCC3)nn2)c1)c1ccccc1,"28.2 µM [falling, partial curve, poor fit]","25.1 µM [falling, partial curve, poor fit]"
CCCCOc1ccc(C(=O)Nc2ccncc2)cc1,"2.82 µM [rising, full curve]","2.51 µM [rising, full curve]"
Cc1ccc(S(=O)(=O)NCCc2sc3nc(-c4ccccc4)nn3c2C)cc1C,,"0.355 µM [rising, partial curve]"
O=C(CCS(=O)(=O)c1ccccc1)Nc1cccc(-c2nc3ccccc3s2)c1,"4.47 µM [falling, partial curve]","0.178 µM [falling, full curve, poor fit]"
CCOCCCNC(=O)Nc1cc(C(=O)NCc2ccc(C(C)C)cc2)ccc1N1CCCC1,"35.5 µM [falling, single point]",
CC(=O)c1ccc(C(=O)N(Cc2cccnc2)c2nc3c(Cl)cccc3s2)cc1,,"11.2 µM [rising, partial curve, poor fit]"
COc1cc(CN2CCCC(C(=O)c3ccccc3SC)C2)cc(OC)c1 (stereo not given),"10 µM [falling, partial curve, poor fit]","12.6 µM [falling, partial curve, poor fit]"
CC1CC(C)CN(c2oc(Cc3ccccc3)nc2C#N)C1 (stereo not given),"10 µM [rising, partial curve, poor fit]","2.24 µM [rising, full curve, poor fit]"
CCCCCCCCCCCCCCCC(=O)OC(CC(=O)O)C[N+](C)(C)C (stereo not given),"25.1 µM [falling, single point]","12.6 µM [falling, partial curve, poor fit]"
O=S(=O)(Nc1ccccn1)c1ccc(C2CCCCC2)cc1,,"15.8 µM [rising, single point]"
O=C(NCCc1c[nH]c2ccccc12)/C(=C\c1cccnc1)NC(=O)c1ccco1,,"11.2 µM [rising, partial curve, poor fit]"
O=c1c2[nH]c3ccc(Br)cc3c2ncn1CCCn1ccnc1,"35.5 µM [falling, single point]",
COc1ccc(C)cc1S(=O)(=O)N1CCC(C(=O)NCCc2ccccc2)CC1,"20 µM [rising, single point]",
COc1ccc(-n2c(SCC(=O)Nc3nnc(C)s3)nc3c([nH]c4ccccc43)c2=O)cc1,"0.447 µM [falling, full curve, poor fit]","0.794 µM [falling, full curve, poor fit]"
COc1cccc(CNc2ncc(-c3ccc(Br)cc3)n2C)c1,"1.41 µM [falling, full curve]",
Cn1c(Cn2cnc3ccccc32)nc2ccccc21,"20 µM [rising, partial curve, poor fit]","14.1 µM [rising, partial curve]"
CCOC(=O)c1cc(-c2ccccc2)sc1NC(=O)C(C)Sc1nnc(N)s1 (stereo not given),,"35.5 µM [rising, single point]"
COc1cccc2sc(N3CCN(C(=O)CS(=O)(=O)c4ccc(Cl)cc4)CC3)nc12,"31.6 µM [falling, single point]",
COc1ccc(CN(C(=O)CSc2nnc(-c3ccccc3C)o2)c2ccc(F)cc2)cc1,,"22.4 µM [rising, single point]"
